According to article PMC5652782:
These are yes or no findings as the source states them, for the method shown. In cells and extracts the contact can be indirect. Some entries that bind do so weakly or less than the wild type.

By UniProt entry, the sequences of proteins in these tests, tags left out. Where a name states a change or a piece, a line headed by the entry shows the natural chain unless it says otherwise. Chains listed by the source or under a name are the forms on record and can include a tag or linker.
UniProt P06730: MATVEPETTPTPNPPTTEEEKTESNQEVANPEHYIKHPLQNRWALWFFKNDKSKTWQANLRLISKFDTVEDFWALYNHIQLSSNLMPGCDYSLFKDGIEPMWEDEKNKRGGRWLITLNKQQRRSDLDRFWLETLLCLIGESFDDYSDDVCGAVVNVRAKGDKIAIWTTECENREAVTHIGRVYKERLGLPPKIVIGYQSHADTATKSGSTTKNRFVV
UniProt P63074: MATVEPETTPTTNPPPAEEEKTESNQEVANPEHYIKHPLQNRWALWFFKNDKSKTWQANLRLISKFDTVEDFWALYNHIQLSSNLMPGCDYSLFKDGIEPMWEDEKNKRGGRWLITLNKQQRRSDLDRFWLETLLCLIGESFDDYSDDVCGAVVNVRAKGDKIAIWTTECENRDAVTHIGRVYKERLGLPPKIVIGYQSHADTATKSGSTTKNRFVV
UniProt P30281: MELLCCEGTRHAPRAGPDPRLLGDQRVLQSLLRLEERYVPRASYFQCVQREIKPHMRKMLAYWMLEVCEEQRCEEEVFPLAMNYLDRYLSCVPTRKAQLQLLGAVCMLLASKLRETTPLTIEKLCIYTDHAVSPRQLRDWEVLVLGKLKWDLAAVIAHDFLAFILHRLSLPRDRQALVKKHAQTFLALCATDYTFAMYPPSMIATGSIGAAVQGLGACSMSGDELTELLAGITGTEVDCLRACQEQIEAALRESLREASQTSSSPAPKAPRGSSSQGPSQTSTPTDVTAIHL
UniProt P04792: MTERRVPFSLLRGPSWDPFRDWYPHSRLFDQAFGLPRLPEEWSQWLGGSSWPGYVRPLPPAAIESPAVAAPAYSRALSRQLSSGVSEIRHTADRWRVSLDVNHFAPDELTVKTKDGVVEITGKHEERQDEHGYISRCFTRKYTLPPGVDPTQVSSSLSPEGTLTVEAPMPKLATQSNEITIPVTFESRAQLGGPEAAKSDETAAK
Hsp27 3A phosphorylation mutant (constitutively unphosphorylated) (P04792, form named): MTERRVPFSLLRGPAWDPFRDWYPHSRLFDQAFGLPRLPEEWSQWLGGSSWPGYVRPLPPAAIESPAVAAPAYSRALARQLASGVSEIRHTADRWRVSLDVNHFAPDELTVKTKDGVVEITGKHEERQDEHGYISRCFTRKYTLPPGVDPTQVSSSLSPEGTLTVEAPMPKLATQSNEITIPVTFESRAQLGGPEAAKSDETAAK
Hsp27 3D phosphorylation mutant (constitutively phosphorylated mimic) (P04792, form named): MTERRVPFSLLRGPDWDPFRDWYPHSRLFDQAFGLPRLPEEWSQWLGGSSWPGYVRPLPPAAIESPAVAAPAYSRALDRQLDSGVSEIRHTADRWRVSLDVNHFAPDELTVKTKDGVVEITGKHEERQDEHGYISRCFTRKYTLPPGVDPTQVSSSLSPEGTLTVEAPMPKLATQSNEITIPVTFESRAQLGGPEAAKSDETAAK
UniProt Q00534: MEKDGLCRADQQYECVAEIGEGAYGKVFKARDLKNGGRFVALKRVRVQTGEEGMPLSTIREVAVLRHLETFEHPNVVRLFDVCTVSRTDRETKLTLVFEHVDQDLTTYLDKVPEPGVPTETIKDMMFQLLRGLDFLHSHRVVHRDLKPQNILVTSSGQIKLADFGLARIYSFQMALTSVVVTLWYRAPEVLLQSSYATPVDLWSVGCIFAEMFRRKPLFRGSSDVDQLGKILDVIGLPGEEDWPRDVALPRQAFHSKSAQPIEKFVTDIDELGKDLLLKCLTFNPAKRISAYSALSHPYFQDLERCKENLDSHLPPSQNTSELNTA

Assays:
[1] = biological target: N-ter luc/eIF4E fusion protein (BRET donor) (UniProt P06730); test: FRET or BRET; living HEK293T cells co-transfected with 0.2 μg donor plasmid N-ter luc/eIF4E and 0 to 1 μg acceptor plasmid Hsp27/YFP C-ter; coelenterazine
[2] = biological target: N-ter luc/eIF4E fusion protein (BRET donor) (UniProt P06730); test: FRET or BRET; extracts of HEK293T cells transfected separately with donor or acceptor; 1 μg (4 μg for CCND3/luc) donor lysate and 0 to 15 μg acceptor lysate, pre-incubated 2 h with DMSO or compound 14 (0, 20, 50, 100 μM), mixed for 30 min; coelenterazine
[3] = biological target: eIF4E (endogenous, REG cells) (rat (endogenous in REG)) (UniProt P63074); test: co-IP; REG cells transiently transfected with Hsp27 plasmids; cleared lysates precipitated with rabbit anti-eIF4E antibody overnight at 4°C, TrueBlot anti-rabbit beads; blot for histidine and eIF4E
CCND3/Luc = CCND3/Luc (UniProt P30281); test: FRET or BRET; extracts of HEK293T cells transfected separately with donor or acceptor; 1 μg (4 μg for CCND3/luc) donor lysate and 0 to 15 μg acceptor lysate, pre-incubated 2 h with DMSO or compound 14 (0, 20, 50, 100 μM), mixed for 30 min; coelenterazine
[4] = biological target: eIF4E (endogenous, PC-3 cells) (human (endogenous in PC-3)) (UniProt P06730); test: co-IP; endogenous proteins of PC-3 cells treated with DMSO (control) for 48h; precipitated with eIF4E rabbit antibody or rabbit IgG (control); blot for Hsp27 and eIF4E
[5] = biological target: eIF4E (endogenous, PC-3 cells) (human (endogenous in PC-3)) (UniProt P06730); test: condition: only cells treated with compound 14 during 48h; co-IP; endogenous proteins of PC-3 cells treated with compound 14 for 48h; precipitated with eIF4E rabbit antibody; blot for Hsp27 and eIF4E

Substance	binding [3]	other results
Hsp27/YFP C-ter fusion protein (BRET acceptor) (from UniProt P04792 1-205)	–	binding [1]: binds; binding [2]: binds
CDK6/YFP (from UniProt Q00534 1-326)	–	binding (CCND3/Luc): binds
Hsp27 N1 truncated mutant (residues 1-93) (from UniProt P04792 1-93) (domain or fragment)	no binding	–
Hsp27 3A phosphorylation mutant (constitutively unphosphorylated) (from UniProt P04792 1-205)	binds	–
Hsp27 N2 truncated mutant (residues 1-173) (from UniProt P04792 1-173) (domain or fragment)	no binding	–
Hsp27 (endogenous, PC-3 cells) (from UniProt P04792 1-205)	–	binding [4]: binds; binding [5]: no binding

The next lines start with results.

binding [3]	Substance	other results
binds	Hsp27 C1 truncated mutant (residues 93-205) (from UniProt P04792 93-205) (domain or fragment)	–
binds	Hsp27 3D phosphorylation mutant (constitutively phosphorylated mimic) (from UniProt P04792 1-205)	–
binds	Hsp27 wild type (WT) (from UniProt P04792 1-205)	–
